# Laboratory results taken from patent US20250346660A1 (PARAGON THERAPEUTICS, published 2025).
# These are yes or no findings as the source states them, for the method shown. Some results given as binding are weak or reduced against the parent protein; the word gives no strength.
# T1: Recombinant Human IL-23 (human, UniProt Q9NPF7 20-189; P29460 23-328)
# T1 sequence (looked up) 1: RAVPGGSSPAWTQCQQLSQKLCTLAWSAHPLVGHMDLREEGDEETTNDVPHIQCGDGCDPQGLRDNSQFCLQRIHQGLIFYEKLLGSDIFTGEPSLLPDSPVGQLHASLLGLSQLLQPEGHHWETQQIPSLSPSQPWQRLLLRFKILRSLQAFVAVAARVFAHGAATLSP
# T1 sequence (looked up) 2: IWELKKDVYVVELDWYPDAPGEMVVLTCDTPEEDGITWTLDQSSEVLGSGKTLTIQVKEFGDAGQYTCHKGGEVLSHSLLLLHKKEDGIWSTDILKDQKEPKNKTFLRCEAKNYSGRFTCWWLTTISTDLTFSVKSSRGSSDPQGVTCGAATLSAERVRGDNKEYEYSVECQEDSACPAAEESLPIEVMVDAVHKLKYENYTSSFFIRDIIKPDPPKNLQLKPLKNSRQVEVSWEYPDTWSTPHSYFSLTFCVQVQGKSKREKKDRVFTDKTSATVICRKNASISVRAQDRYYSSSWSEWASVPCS
# B1: IL-23 antibody clone 107 (antibody, human IgG1, kappa, L234A L235A, V domains shown)
# VH: QVQLVQSGAEVKKPGSSVKVSCKASGYTFTAQTIHWMRQAPGQGLEWIGYIYPRDDTPKYNPNFKGKVTITADKSTSTAYMELSSLRSEDTAVYYCAIPDRSGYAWFDYWGQGTLVTVSS
# VL: DIQMTQSPSSLSASVGDRVTITCKASRDVAIAVAWYQQKPGKVPKLLIYWASTRHTGVPSRFSGSGSRTDFTLTISSLQPEDVADYFCHQYSSYPFTFGSGTKLEIKR
# Target: T1, Recombinant Human IL-23
# Assay: summary of Examples 3-6 (SPR)
binder,measurement,value
B1,binding,binds
